Among the data in paper PMC4754343 are binding values, retold here.

Assay [1] deals with GST-NS5A (Full) (Hepatitis C virus (genotype not stated)) (UniProt Q9WMX2). As to the kind of experiment: pull-down; GST pulldown: HEK293 cells co-transfected for 48 h; 1 mg of cell lysate incubated with 20 ul glutathione-Sepharose beads at 4 °C overnight, beads washed three times with lysis buffer; immunoblotting. (In general: In western blotting, separated proteins are transferred to a membrane and probed.)

Assay [2] concerns the target NS5A of Huh-neo-5-15 subgenomic replicon cells (Hepatitis C virus (subgenomic replicon in Huh-neo-5-15 cells)) (UniProt Q9WMX2). As to the kind of experiment: co-IP; Huh-neo-5-15 subgenomic replicon cells; 1 mg of total cell lysate incubated with mouse normal IgG or an NS5A antibody for 12 h at 4 °C, then protein A/G agarose beads for 2 h; immunoblotting.

These are yes or no findings as the source states them, for the method shown. In cells and extracts the contact can be indirect. Some results given as binding are weak or reduced against the parent protein; the word gives no strength. For part of these data: Where a sequence is shown, tags or fusion partners need not be part of it.

B1: SCOTIN-MYC (protein, UniProt Q9D7I0 27-235)
chain: ELCRPFGEDNSIPVFCPDFCCGSCSNQYCCSDVLRKIQWNEEMCPEPESRFSTPAEETPEHLGSALKFRSSFDSDPMSGFGATVAIGVTIFVVFIATIIICFTCSCCCLYKMCCPQRPVVTNTTTTTVVHAPYPQPQPQPVAPSYPGPTYQGYHPMPPQPGMPAAPYPTQYPPPYLAQPTGPPPYHESLAGASQPPYNPTYMDSLKTIP
For the molecule B1, the binding result in assay [1] is reported as “binds”.

B2: SCOTIN-V5 (protein, UniProt Q9D7I0 27-235)
chain: ELCRPFGEDNSIPVFCPDFCCGSCSNQYCCSDVLRKIQWNEEMCPEPESRFSTPAEETPEHLGSALKFRSSFDSDPMSGFGATVAIGVTIFVVFIATIIICFTCSCCCLYKMCCPQRPVVTNTTTTTVVHAPYPQPQPQPVAPSYPGPTYQGYHPMPPQPGMPAAPYPTQYPPPYLAQPTGPPPYHESLAGASQPPYNPTYMDSLKTIP
With B2, in assay [1], the binding result is “binds”.

B3: endogenous SCOTIN (protein, UniProt Q8N114 29-240)
chain: EVCMASRGLSLFPESCPDFCCGTCDDQYCCSDVLKKFVWSEERCAVPEASVPASVEPVEQLGSALRFRPGYNDPMSGFGATLAVGLTIFVLSVVTIIICFTCSCCCLYKTCRRPRPVVTTTTSTTVVHAPYPQPPSVPPSYPGPSYQGYHTMPPQPGMPAAPYPMQYPPPYPAQPMGPPAYHETLAGGAAAPYPASQPPYNPAYMDAPKAAL
As for B3, in assay [2], the binding entry is recorded as “binds”.
